Data taken from patent US11273203B2, “Methods of mitigating toxic effects of vesicants and caustic gas” (dated 2022).
A number of entries come with more than one value. Only these are listed. The source may hold further records. Results that share an entry do not match, cause unknown; some may be repeats, others may stem from another dose, organism or construct than stated.

Test system: male Wistar rats exposed to nitrogen mustard (NM)
Test: MRI (T2-weighted) measurement of NM-induced pulmonary edema
Conditions: Day 3; single dose TPOm 0.3 mg/kg 6 hours after NM-exposure; two NM/TPOm groups; NM-treated group 1736 mm3; not statistically significant

In the case of “methoxypolyethyleneglycol20000-propionyl-L-Isoleucyl-L-Glutamyl-Glycyl-L-Prolyl-L-Threonyl-L-Leucyl-L-Arginyl-L-Glutaminyl-L-2-Naphthylalanyl-L-Leucyl-L-Alanyl-L-Alanyl-L-Arginyl-Sarcosyl-Ne-(methoxypolyethyleneglycol20000-propionyl-L-Isoleucyl-L-Glutamyl-Glycyl-L-Prolyl-L-Threonyl-L-Leucyl-L-Arginyl-L-Glutaminyl-L-2-Naphthylalanyl-L-Leucyl-L-Alanyl-L-Alanyl-L-Arginyl-Sarcosyl-)-Lysinamide”, the mean edema volume is reported as 1592 mm3 and 1387 mm3.
